# In PubChem BioAssay AID540256 (National Center for Advancing Translational Sciences (NCATS), 2011):
# Among all 300,000 compounds or so, about 3,700 (1.2%) were called active. Inconclusive means that the source gave no clear call. Such entries were picked first, then a sample of the others. The call rests on the fitted dose curve; tested in HEK293 cells. Potencies of inconclusive entries are doubtful fits and often do not repeat.
# Assay: qHTS for Inhibitors of binding or entry into cells for Lassa Virus; further: nearly all actives have a fitted effect of over 50% in size
# Settings: Lassa virus pseudotype entry inhibition, cell reporter; activity change, negative = inhibition: at 37.9 µM (top of the series) unless noted
# On the % scale 0 is the no-effect control and ±100 the full control effect; potency means the concentration at half of the fitted maximal effect.
Structure (SMILES),Potency,"activity change, negative = inhibition"
CC12CCC(=O)C=C1CC(N1CC1)C1C2CCC2(C)C(O)CCC12 (stereo not drawn),"inconclusive: 22.4 µM [inhibitor, single point]",–
O=[N+]([O-])c1ccc(N2CCN(CCO)CC2)cc1Sc1ccccn1,–,inactive: 13.9%
CC(=O)Nc1ccc(NC(=O)C(C)NC(C)c2cccc3ccccc23)cc1 (stereo not drawn),"inconclusive: 11.2 µM [inhibitor, partial curve, poor fit]",–
Cc1ccccc1-n1nc(C)c2cc(C(=O)N3CCN(S(=O)(=O)c4ccc(F)cc4)CC3)sc21,"inconclusive: 16.4 µM [inhibitor, single point]",–
CCOC(=O)c1c(NC(=O)C2CCCO2)sc(C(=O)OC(C)(C)C)c1C (stereo not drawn),"inconclusive: 29.1 µM [inhibitor, single point]",–
CCOC(=O)c1cnn2c(C)cc(-c3ccccc3)nc12,–,inactive: 6.82%
Cc1ccc(NC(=O)C2=CC(c3cccs3)=NS(=O)(=O)N2C)cc1,"inconclusive: 15.8 µM [inhibitor, single point]",–
C=CCSc1nc(C)cc(C(=O)OCC)c1C#N,"inconclusive: 12.6 µM [activator, single point]",–
CCN(C(=O)COC(=O)c1cc(-c2cccc3ccccc23)nc2ccccc12)C1CCS(=O)(=O)C1 (stereo not drawn),–,inactive: -17.9%
Cc1ccc(N=Cc2cc(Br)cc(Cl)c2O)cc1,"inconclusive: 7.94 µM [inhibitor, partial curve, poor fit]",–
CCOC(=O)c1[nH]c2ccc(OC)cc2c1NC(=O)c1cccc(OC)c1,"inconclusive: 0.73 µM [inhibitor, full curve, poor fit]",–
CN(C)/C=C1/NC(=S)NC1=O,–,inactive: 5.37%
O=[N+]([O-])c1cc(Cl)cc(/C=N/Nc2nc3ccccc3s2)c1O,"inconclusive: 35.5 µM [inhibitor, single point]",–
CC(C)C(OC(=O)c1nsc(Cl)c1Cl)C(=O)NCC1CCCO1 (stereo not drawn),"inconclusive: 4.47 µM [activator, full curve, poor fit]",–
Cc1cccc(NC(=O)c2cccc(NC(=O)Cc3cccs3)c2)c1,"inconclusive: 20 µM [inhibitor, single point]",–
CCN(CC)CCOC(=O)c1ccc(NC(=O)C(C)NC(=O)C23CC4CC(CC(C4)C2)C3)cc1 (stereo not drawn),–,inactive: -4.11%
Cc1nc(S(=O)(=O)N2CCOCC2)c(C#N)c(C)c1Cl,–,inactive: -11.2%
Nc1nc2nc(-c3ccc(Cl)cc3)cc(C(F)(F)F)n2n1,"inconclusive: 3.98 µM [activator, partial curve]",–
COc1ccc([N+](=O)[O-])cc1NC(=O)CSc1nc(C)c(C)c(C)n1,–,inactive: 0.46%
CC(=O)N1c2ccccc2C(=O)C1N1CCN(c2cccc(C)c2C)CC1 (stereo not drawn),"inconclusive: 6.31 µM [activator, full curve, poor fit]",–
O=c1[nH]c(=O)n(C2CCCCC2)c(O)c1C=NCCCn1ccnc1,"inconclusive: 6.31 µM [inhibitor, single point]",–
COc1cc(C2Nc3ccccc3C(=O)N2c2ccccc2)c(Br)cc1OCC(=O)O (stereo not drawn),"inconclusive: 29.1 µM [activator, partial curve, poor fit]",–

Structure (SMILES),Potency,"activity change, negative = inhibition"
O=C(Nc1ccc(Oc2ccc(Cl)cc2)cc1)c1ncn[nH]1,–,inactive: 11.9%
Cc1ccc(C(=O)NCCSc2c(C)[nH]c3ccccc23)cc1C,"inconclusive: 35.5 µM [inhibitor, single point]",–
C[C@]12CCC3C(CC[C@H]4C[C@H](O)CC[C@]34C)C1[C@@H](O)[C@@H](O)[C@@H]2O (stereo partly drawn),"inconclusive: 3.55 µM [inhibitor, partial curve, poor fit]",–
Cc1[nH]c2ccc(C(=O)OC(C)C(=O)NC3(C#N)CCCCC3)cc2c1C (stereo not drawn),"inconclusive: 6.31 µM [inhibitor, full curve, poor fit]",–
CCOc1cc(C2C(C(N)=O)=C(C)Nc3ncnn32)cc(Br)c1O (stereo not drawn),"inconclusive: 3.16 µM [activator, single point]",–
CCn1nc(C)c(NC(=O)/C=C/c2ccc(OC)c(COc3ccc(Cl)cc3Br)c2)c1C,"inconclusive: 1 µM [inhibitor, partial curve, poor fit]",–
COc1ccc(/C=C/C(=O)N2CCC(C(N)=O)CC2)cc1S(=O)(=O)N1CCOCC1,"inconclusive: 35.5 µM [activator, single point]",–
CCCNC(=O)CN1C(=O)NC(CCSC)C1=O (stereo not drawn),"inconclusive: 5.62 µM [activator, single point]",–
CCCc1cc(=O)oc2cc(OCC(=O)Nc3cc(C)on3)ccc12,–,inactive: 9.37%
O=C(Nc1cccc(-c2nnc(-c3ccco3)o2)c1)C(c1ccccc1)c1ccccc1,"inconclusive: 35.5 µM [inhibitor, single point]",–
Cc1ccc(NC(=O)CN2C(=O)CSc3ccc(S(=O)(=O)N(C)C)cc32)cc1C,–,inactive: 19.3% [at 46.1 µM]
Cc1ccc(N(CC(=O)NC2CCCC2)C(=O)CCC(=O)Nc2ccccn2)cc1C,–,inactive: -8.08%
Cc1scc(C(=O)N/N=C/c2ccco2)c1C,–,inactive: -1.55%
Cc1c(C(=O)N2CCc3ccccc3C2)oc2ccc(S(=O)(=O)N3CCCCCC3)cc12,"inconclusive: 14.1 µM [inhibitor, single point]",–
Cc1ccc(CSC2=Nc3ccccc3C3=NC(CCC(=O)NCCc4ccccc4)C(=O)N23)cc1 (stereo not drawn),"inconclusive: 1.41 µM [activator, full curve, poor fit]",–
O=C(CSc1nnc(-c2ccc(O)cc2)o1)Nc1ccc2c(c1)OCCO2,"inconclusive: 35.5 µM [inhibitor, single point]",–
Cc1onc(-c2ccccc2)c1C(=O)OCC(=O)N(C)c1ccccc1,"inconclusive: 22.4 µM [inhibitor, single point]",–
Cc1cccc(-n2c(/C=C/c3c(C)[nH]c4ccccc34)nc3ccccc3c2=O)c1,–,inactive: 2.96% [at 46.1 µM]
O=C(c1cc(S(=O)(=O)N2CCOCC2)ccc1Cl)N1CCCCC1CO (stereo not drawn),–,inactive: -3.41% [at 46.1 µM]
O=C(COc1ccccc1[N+](=O)[O-])Nc1cccc(Cl)c1N1CCOCC1,"inconclusive: 25.1 µM [inhibitor, single point]",–
O=C(N/N=C/c1ccc2cccc(OCc3ccccc3)c2n1)c1ccc(Cl)cc1,–,inactive: -17.7%

# Looked up above:
# activity change, negative = inhibition with `CCCc1cc(=O)oc2cc(OCC(=O)Nc3cc(C)on3)ccc12` reads inactive: 9.37%
# Potency with `Cc1onc(-c2ccccc2)c1C(=O)OCC(=O)N(C)c1ccccc1` reads inconclusive: 22.4 µM [inhibitor, single point]
# Potency with `O=C(CSc1nnc(-c2ccc(O)cc2)o1)Nc1ccc2c(c1)OCCO2` reads inconclusive: 35.5 µM [inhibitor, single point]
